Substitutions are numbered along the chain they refer to. Results are given in words; binding and its absence hold for the method and conditions named. In cells and extracts the contact can be indirect. Some entries that bind do so weakly or less than the wild type.
Key:
Test in all cases: pull-down
Derlin-1 W53A (human) = target: T1, Derlin-1 W53A (human) (UniProt Q9BUN8)
T1 sequence: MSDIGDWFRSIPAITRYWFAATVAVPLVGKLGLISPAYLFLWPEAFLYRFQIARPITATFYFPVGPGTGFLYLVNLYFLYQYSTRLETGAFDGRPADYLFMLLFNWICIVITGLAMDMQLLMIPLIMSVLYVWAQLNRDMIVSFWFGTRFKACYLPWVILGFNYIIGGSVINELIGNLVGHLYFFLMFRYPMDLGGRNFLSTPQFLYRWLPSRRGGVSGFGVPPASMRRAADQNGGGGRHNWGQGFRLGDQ

Sequences of proteins named here, by UniProt entry; tags and fusion partners are left off. A change or cut given only in a name is not applied to a line headed by its entry. A line that says so, or that is headed by a name, gives the form on record, which may keep a tag or linker.
cystic fibrosis transmembrane conductance regulator (CFTR)ΔF508 (P13569, form named): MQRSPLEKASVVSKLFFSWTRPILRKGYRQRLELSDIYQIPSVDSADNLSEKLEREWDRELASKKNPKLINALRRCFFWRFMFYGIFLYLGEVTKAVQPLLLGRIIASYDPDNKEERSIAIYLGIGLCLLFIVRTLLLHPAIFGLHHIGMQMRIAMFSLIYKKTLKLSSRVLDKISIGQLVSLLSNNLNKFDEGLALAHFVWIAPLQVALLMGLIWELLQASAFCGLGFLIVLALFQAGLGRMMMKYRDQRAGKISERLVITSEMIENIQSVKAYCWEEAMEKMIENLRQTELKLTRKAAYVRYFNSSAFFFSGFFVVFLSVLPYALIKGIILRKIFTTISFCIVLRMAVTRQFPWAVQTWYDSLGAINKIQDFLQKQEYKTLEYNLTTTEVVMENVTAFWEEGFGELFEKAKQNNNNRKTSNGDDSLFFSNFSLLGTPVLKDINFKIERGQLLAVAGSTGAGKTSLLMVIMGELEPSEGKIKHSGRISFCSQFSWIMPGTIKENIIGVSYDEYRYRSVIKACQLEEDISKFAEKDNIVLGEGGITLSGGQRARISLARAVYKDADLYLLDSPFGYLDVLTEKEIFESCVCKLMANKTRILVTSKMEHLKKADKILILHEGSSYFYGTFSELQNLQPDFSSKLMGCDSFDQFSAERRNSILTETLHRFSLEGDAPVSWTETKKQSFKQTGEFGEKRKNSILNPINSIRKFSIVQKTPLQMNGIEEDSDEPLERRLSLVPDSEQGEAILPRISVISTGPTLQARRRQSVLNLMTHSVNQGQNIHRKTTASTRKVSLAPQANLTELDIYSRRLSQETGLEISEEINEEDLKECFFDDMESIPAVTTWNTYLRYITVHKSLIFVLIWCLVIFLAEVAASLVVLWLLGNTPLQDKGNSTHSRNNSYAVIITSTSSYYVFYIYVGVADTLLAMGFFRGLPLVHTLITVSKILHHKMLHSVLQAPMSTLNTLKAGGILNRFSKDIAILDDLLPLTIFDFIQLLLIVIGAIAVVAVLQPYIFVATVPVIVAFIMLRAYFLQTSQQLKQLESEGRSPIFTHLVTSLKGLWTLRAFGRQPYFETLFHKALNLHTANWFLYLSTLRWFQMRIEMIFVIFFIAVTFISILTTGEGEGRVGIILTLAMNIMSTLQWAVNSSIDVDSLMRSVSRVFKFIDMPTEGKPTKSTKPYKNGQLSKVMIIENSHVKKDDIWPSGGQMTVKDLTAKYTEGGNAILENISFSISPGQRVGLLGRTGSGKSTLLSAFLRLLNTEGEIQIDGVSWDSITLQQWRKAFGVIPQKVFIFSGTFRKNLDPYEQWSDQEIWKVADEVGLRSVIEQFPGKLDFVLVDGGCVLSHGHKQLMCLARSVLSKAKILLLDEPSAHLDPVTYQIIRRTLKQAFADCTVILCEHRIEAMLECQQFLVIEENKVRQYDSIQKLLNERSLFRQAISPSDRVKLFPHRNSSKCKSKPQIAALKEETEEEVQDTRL

Derlin-1 R49A (human) = target: T2, Derlin-1 R49A (human) (UniProt Q9BUN8)
T2 sequence: T1 sequence with R49A, A53W

Derlin-1 F91A (human) = target: T3, Derlin-1 F91A (human) (UniProt Q9BUN8)
T3 sequence: T1 sequence with A53W, F91A

Derlin-1 A45S (human) = target: T4, Derlin-1 A45S (human) (UniProt Q9BUN8)
T4 sequence: T1 sequence with A45S, A53W

“cystic fibrosis transmembrane conductance regulator (CFTR)ΔF508 (from UniProt P13569 1-1480)” was tested, and the binding (Derlin-1 W53A (human)) was “no binding”, the binding (Derlin-1 R49A (human)) was “no binding” and the binding (Derlin-1 F91A (human)) was “binds”. The binding (Derlin-1 A45S (human)) was “no binding”.

Reference: article doi:10.1101/2021.06.15.448428
